Reference: PubChem BioAssay AID1159584 (Peter MacCallum Cancer Centre, 2016)
In all, the deposit lists about 18,000 reagents; this is a part drawn at random. Further read-outs or replicates are left out here. Not stated in the record: the amount of reagent, the time to read-out.

Screen: 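Knock-downs that harm CDH1-null cells more than parental MCF10A cells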 (primary screen)
System: human MCF10A breast epithelial cells, parental and CDH1-null
Reagents: siRNA against human genes
Read-out: 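Cell viability by CellTiter-Glo ATP luminescence, each line scaled to the mean of mock wells across plates, then CDH1-null over parental ratio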
Direction: CDH1-null / parental viability ratio: higher = CDH1-null cells survive relatively better than parental

| target | CDH1-null / parental viability ratio |
| --- | --- |
| ZNF366 | 1.53 |
| MID2 | 0.96 |
| XPNPEP2 | 1.02 |
| NR1D1 | 1.12 |
| CSRP1 | 1.14 |
| CEP97 | 1.05 |
| ROMO1 | 0.88 |
| PHKA1 | 0.94 |
| PHF13 | 0.99 |
| TMEM120A | 1.21 |
| NEUROG3 | 1.42 |
| CERT1 | 0.8 |
| N4BP1 | 1.04 |
| SENP7 | 1.15 |
| ELFN2 | 0.92 |
| SPCS2 | 1.01 |
| ACTL9 | 0.9 |
| ANKHD1-EIF4EBP3 | 1.04 |
| STX17 | 0.98 |
| STRC | 0.96 |
| PLPP1 | 1.39 |
| DAZAP1 | 1.05 |
| UGT1A7 | 1.42 |
| MAPK1 | 0.83 |
| UQCC4 | 1.17 |
| ZMYM3 | 1.05 |
| PIGS | 0.85 |
| ASPSCR1 | 0.69 |
| CHD6 | 1 |
| TTR | 0.88 |
| BDP1 | 1.15 |
| SYPL2 | 1 |
| GRWD1 | 1.07 |
| DNAJC28 | 0.96 |
| GPR176 | 1.38 |
| MRPL48 | 0.81 |
| DEK | 0.91 |
| AWAT1 | 1.06 |
| SLC1A7 | 1.17 |
| IL1RAPL1 | 0.93 |
| GPD1 | 1.03 |
| COX7A1 | 1.06 |
| TEX35 | 1.15 |
| NUDT13 | 0.85 |
| PCID2 | 0.86 |
| SPATA31D1 | 1.13 |
| FOXD4 | 0.98 |
| NAIF1 | 1.77 |
| GIP | 1.45 |
| THSD7B | 0.74 |
| LUC7L2 | 1.09 |
| VAMP5 | 0.9 |
| ATP13A4 | 0.87 |
| LRRC75A | 1.09 |
| APCDD1L | 1.42 |
| RBM5 | 1.07 |
| OR4N2 | 1.16 |
| TNFRSF9 | 0.68 |
| SRP14 | 0.85 |
| CHRNB2 | 1.38 |
| GNB4 | 0.88 |
| NCR2 | 1.09 |
| SARAF | 0.9 |
| SSH1 | 1.24 |
| SLC12A7 | 1.08 |
| NPTXR | 0.9 |
| SLC35G5 | 1.36 |
| PIM3 | 0.85 |

Targets above whose gene name begins with D or d:
| target | CDH1-null / parental viability ratio |
| --- | --- |
| DAZAP1 | 1.05 |
| DNAJC28 | 0.96 |
| DEK | 0.91 |
